# The list shows a part of the results. The data scatter; read single values as rough.
# Experiments:
# [1] = compound: ClCC(=O)N[C@@H]1CCCc2ccccc12; assay: log2 mean competition ratio of IA-DTB cysteine labelling (DMSO/compound) (log2 ratio); higher = stronger cysteine engagement by compound; settings: treatment time: 4 h, cell line lysate: HEK293T
# Procedure: (§1)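 IA-DTB competitive cysteine chemoproteomics in HEK293T RIPA lysate. Lysates were treated with compound 29 or 30 at 50 or 200 µM for 4 h, then IA-DTB (500 µM, 1 h), trypsin-digested, NeutrAvidin-enriched and analysed by diaPASEF. Competition ratio = intensity DMSO / intensity compound (n=4 treated, n=64 DMSO); binding: mean log2 CR ≥ 1 and p ≤ 0.05 plus QC filters. Target is the cysteine site.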
# [2] = compound: ClCC(=O)N[C@H]1CCCc2ccccc12; assay: as above; settings: treatment time: 4 h, cell line lysate: HEK293T
# Procedure: as §1
Target,log2 mean competition ratio ([1]; 50 µM),log2 mean competition ratio ([1]; 200 µM),log2 mean competition ratio ([2]; 50 µM),log2 mean competition ratio ([2]; 200 µM)
NEK9 C556 (UniProt Q8TD19),0.089,0.0461,-0.0228,0.0514
NDUFB11 C141 (UniProt Q9NX14),-0.136,-0.0858,0.213,0.0372
NFX1 C92 (UniProt Q12986),0.139,0.248,0.0326,0.262
NFAT5 C566 (UniProt O94916),0.0249,0.163,0.086,0.00326
NCAPG C509 (UniProt Q9BPX3),-0.177,-0.107,-0.131,-0.0988
NCAPG2 C443 (UniProt Q86XI2),0.352,0.0606,-0.0865,0.257
NOP14 C457 (UniProt P78316),0.322,-0.556,0.175,-0.529
NOA1 C272 (UniProt Q8NC60),-0.0586,0.027,0.00304,0.248
NIN C297 (UniProt Q8N4C6),-0.217,0.0529,-0.822,-0.0773
NIBAN1 C409 (UniProt Q9BZQ8),-0.074,-0.0392,0.121,0.0437
NOCT C302 (UniProt Q9UK39),-0.254,0.107,-0.248,-0.0224
NOL11 C333 (UniProt Q9H8H0),0.23,-0.0506,-0.0939,-0.0821
NOP2 C463 (UniProt P46087),-0.0718,0.00349,-0.27,-0.00891
NLN C153 (UniProt Q9BYT8),-0.0403,0.14,-0.428,0.0841
NEK6 C264 (UniProt Q9HC98),-0.121,0.287,-0.421,0.00959
NEIL3 C579,0.0395,0.297,-0.18,0.229
NELFB C235 (UniProt Q8WX92),0.284,-0.219,-0.0109,-0.242
NNT C936 (UniProt Q13423),0.1,-0.182,0.136,-0.0798
NID1 C1135,0.0869,0.00528,-0.438,-0.101
NCBP1 C320 (UniProt Q09161),-0.344,0.108,-0.317,-0.0127
NCAPG C667 (UniProt Q9BPX3),-0.343,-0.193,0.0335,-0.212
NOL8 C630 (UniProt Q76FK4),-0.00529,-0.247,0.362,-0.192
NDUFB7 C90 (UniProt P17568),0.0348,0.395,0.0887,0.339
NEK2 C335 (UniProt P51955),-0.0799,-0.152,0.187,0.134
NFATC1 C533 (UniProt O95644),-0.304,-0.63,0.212,-0.00639
NCDN C351 (UniProt Q9UBB6),0.0454,-0.163,0.32,-0.423

Target,log2 mean competition ratio ([1]; 50 µM),log2 mean competition ratio ([1]; 200 µM),log2 mean competition ratio ([2]; 50 µM),log2 mean competition ratio ([2]; 200 µM)
NASP C254 (UniProt P49321),-0.167,0.0842,-0.0969,0.187
NCAPH C114 (UniProt Q15003),0.338,0.00549,-0.079,-0.0924
NAXE C283 (UniProt Q8NCW5),0.105,0.0368,0.37,-0.187
NFX1 C1067 (UniProt Q12986),0.0514,0.0945,-0.252,-0.106
NFKB1 C61 (UniProt P19838),0.474,0.953,-0.15,-0.128
NCKIPSD C376 (UniProt Q9NZQ3),-0.106,0.074,-0.0716,-0.239
NEIL2 C291 (UniProt Q969S2),0.267,0.167,0.0723,0.204
NCBP1 C409 (UniProt Q09161),-0.0472,0.142,-0.206,0.023
NOP56 C384 (UniProt O00567),-0.178,-0.0101,-0.00416,0.148
NAV1 C1446 (UniProt Q8NEY1),-0.169,0.161,0.118,0.386
NELFCD C582 (UniProt Q8IXH7),-0.187,0.0876,-0.713,-0.105
NDRG1 C289 (UniProt Q92597),-0.489,-0.94,-0.177,-0.489
NCOR1 C994 (UniProt O75376),0.0223,0.155,0.12,0.434
NOL8 C1020 (UniProt Q76FK4),-0.15,-0.179,-0.461,-0.183
NFX1 C661 (UniProt Q12986),-0.193,0.0283,0.0334,0.0279
NCOR1 C987 (UniProt O75376),-0.237,0.584,0.0266,0.642
NBR1 C669 (UniProt Q14596),-0.186,-0.282,-0.247,0.135
NAV1 C337 (UniProt Q8NEY1),0.0558,0.246,-0.000841,0.269
NCDN C22 (UniProt Q9UBB6),0.127,0.187,0.1,0.144
NFKB2 C57 (UniProt Q00653),0.177,-0.0185,-0.331,-0.114
NBAS C1634 (UniProt A2RRP1),-0.316,-0.181,-0.298,-0.17
NEK9 C626 (UniProt Q8TD19),0.037,0.0117,0.0839,-0.0106
NCDN C725 (UniProt Q9UBB6),-0.0958,0.213,-0.438,0.368
NLGN1 C784,-0.115,0.241,-0.875,-0.0895
NOL10 C202 (UniProt Q9BSC4),-0.158,-0.237,0.255,-0.094
NCK2 C297 (UniProt O43639),-0.0133,0.0369,-0.105,0.159

Target,log2 mean competition ratio ([1]; 50 µM),log2 mean competition ratio ([1]; 200 µM),log2 mean competition ratio ([2]; 50 µM),log2 mean competition ratio ([2]; 200 µM)
NCBP2AS2 C63 (UniProt Q69YL0),0.307,0.0972,0.0389,0.105
NAT10 C658 (UniProt Q9H0A0),0.212,0.307,-0.0774,0.3
NKIRAS2 C10 (UniProt Q9NYR9),0.103,0.0599,-0.0514,0.0399
NMD3 C250 (UniProt Q96D46),0.144,-0.0977,0.129,-0.12
NEU1 C299 (UniProt Q99519),0.0554,0.162,-0.439,0.1
NCDN C491 (UniProt Q9UBB6),-0.0868,-0.129,0.182,0.0415
NEDD4;NEDD4L C1286;(C942),0.535,0.28,0.489,-0.126
NLRX1 C735 (UniProt Q86UT6),-0.0581,0.124,-0.157,-0.00328
NDUFA10 C67 (UniProt O95299),-0.0337,0.139,0.0761,0.164
NME3 C158,-0.0181,-0.169,0.287,0.0512
NCOA1 C831 (UniProt Q15788),0.127,-0.281,0.13,-0.117
NBN C478 (UniProt O60934),-0.275,0.237,-0.113,0.325
NCAPH C309 (UniProt Q15003),-0.0116,0.0616,-0.216,0.0684
NOL11 C578 (UniProt Q9H8H0),-0.122,0.0772,0.00757,0.074
NAT1 C148 (UniProt P18440),0.137,-0.0848,0.0493,-0.265
NCDN C158 (UniProt Q9UBB6),-0.443,0.136,-0.00768,-0.0731
NKRF C242 (UniProt O15226),0.247,-0.143,-0.0527,0.02
NDUFA2 C58 (UniProt O43678),-0.118,0.0235,0.308,0.0971
NIPBL C1971 (UniProt Q6KC79),0.111,-0.162,0.253,-0.0514
NFRKB C637 (UniProt Q6P4R8),-0.177,0.0679,0.031,0.0243
NDUFAF6 C216 (UniProt Q330K2),0.214,-0.213,0.786,-0.174
NECTIN2 C446 (UniProt Q92692),-0.133,0.465,-0.143,0.204
NIPBL C1795 (UniProt Q6KC79),-0.154,0.0185,-0.163,0.0745
NKRF C424 (UniProt O15226),0.225,-0.107,0.128,-0.224
NIN C1912 (UniProt Q8N4C6),-0.213,0.157,-0.214,0.183

# Quoted from the listing.
# log2 mean competition ratio ([2]; 200 µM) with NDUFAF6 C216 (UniProt Q330K2) is entered as -0.174
# log2 mean competition ratio ([1]; 50 µM) with NIPBL C1971 (UniProt Q6KC79) is entered as 0.111
# log2 mean competition ratio ([2]; 200 µM) with NOL11 C578 (UniProt Q9H8H0) is entered as 0.074
# log2 mean competition ratio ([2]; 200 µM) with NBN C478 (UniProt O60934) is entered as 0.325

# From the supplement of paper PMC11732987, “Enantioselective OTUD7B fragment discovery through chemoproteomics screening and high-throughput optimisation” (Communications Chemistry, 2025)
